Experimental data from patent US20250197491A1.
These are yes or no findings as the source states them, for the method shown. Some entries that bind do so weakly or less than the wild type.

Sequences of proteins named here, by UniProt entry; tags and fusion partners are left off. A change or cut given only in a name is not applied to a line headed by its entry. Residues count along the entry.
UniProt Q8NHL6, residues 24-461: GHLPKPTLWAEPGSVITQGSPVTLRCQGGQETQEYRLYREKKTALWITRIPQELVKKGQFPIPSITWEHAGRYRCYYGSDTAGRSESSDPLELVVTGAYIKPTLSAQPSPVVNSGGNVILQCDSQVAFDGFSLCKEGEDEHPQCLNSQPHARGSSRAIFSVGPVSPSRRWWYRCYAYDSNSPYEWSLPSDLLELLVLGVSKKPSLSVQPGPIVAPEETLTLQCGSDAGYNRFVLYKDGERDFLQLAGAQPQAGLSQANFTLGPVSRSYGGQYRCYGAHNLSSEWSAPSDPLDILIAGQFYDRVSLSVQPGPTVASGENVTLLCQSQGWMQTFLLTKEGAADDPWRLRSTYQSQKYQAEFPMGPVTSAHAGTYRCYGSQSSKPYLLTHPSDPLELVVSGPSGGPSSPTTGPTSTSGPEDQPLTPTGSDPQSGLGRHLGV
UniProt Q8N6C8: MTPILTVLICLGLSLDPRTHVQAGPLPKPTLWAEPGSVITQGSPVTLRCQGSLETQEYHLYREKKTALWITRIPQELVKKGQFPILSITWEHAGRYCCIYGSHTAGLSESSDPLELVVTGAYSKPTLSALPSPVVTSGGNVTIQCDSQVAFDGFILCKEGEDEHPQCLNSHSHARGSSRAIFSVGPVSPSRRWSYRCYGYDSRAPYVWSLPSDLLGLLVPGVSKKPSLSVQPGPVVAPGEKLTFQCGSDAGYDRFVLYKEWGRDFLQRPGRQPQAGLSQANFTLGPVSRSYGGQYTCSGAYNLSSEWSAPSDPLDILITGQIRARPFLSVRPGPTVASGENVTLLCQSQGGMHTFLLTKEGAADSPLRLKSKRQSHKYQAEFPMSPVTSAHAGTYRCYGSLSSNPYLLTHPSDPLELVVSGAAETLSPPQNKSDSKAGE

B1: Antibody 2 (antibody, V domains shown)
VH: QVQLVESGGDLVKPGGSLRLSCAASGFTFRDYYMSWIRQAPGKGLEWVSYISPSGSTIFYADSVKGRFTISRDNAKNSLYLQMNSLRAEDTAVYYCAKDRVRLFDYWGQGTLVTVSS
VL: EIVLTQSPATLSLSPGERATLSCRASQSVSSSYLAWYQQKPGQAPRLLIYGASTRATGIPARFSGSGSGTDFTLTISRLEPEDFAVYYCQQRSNWPITFGQGTRLEIK
B2: Reference Antibody 1 (anti-human LILRB1 Ab) (antibody, V domains shown)
VH: DVQLQGSGPGLVKPSETLSLTCSVTGYSITSGYYWNWIRQFPGKKLEWMGYISYDGSNNYNPSLKNRITISRDTSKNQFSLKLNSVTAADTATYYCAHGYSYYYAMDAWGQGTSVTVSS
VL: DIQMTQSPSSLSASVGDRVTITCRTSQDISNYLNWYQQKPGKAVKLLISYTSRLHSGVPSRFSGSGSGTDYTLTISSLQPEDFATYYCQQGNTLPTFGQGTKLEIK

Columns and labels:
[1] = target: human LILRB1 (coated on plates in the competition ELISA) (human) (UniProt Q8NHL6); assay: competition ELISA on coated human LILRB1; competitor 5 nM biotinylated Antibody 2
[2] = target: Human full length LILRA3 (human) (UniProt Q8N6C8); assay: ELISA, antigen coated

| Binder | binding [1] | binding [2] |
| --- | --- | --- |
| B1 | binds | – |
| B2 | – | no binding (tested: 10 nM) |
